This is one part of the list. These are further read-outs of the screen, such as a control signal, another cell line or another target. No call is given for them. The list favours compounds with an active or inconclusive main result. Words in brackets tell the shape of the fitted curve; partial curves, single points and poor fits give uncertain potencies.
Assay: qHTS Assay to Find Inhibitors of Chronic Active B-Cell Receptor Signaling
Conditions: ABC-DLBCL IkBa-CBG/CBR reporter, luminescence ratio (green luciferase fused to IkBa over red control in TMD8 lymphoma cells), 4 h
In short: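 Compounds up to 46 uM were incubated four hours with TMD8 cells whose green CBG68 luciferase is fused to IkappaBalpha; red CBR luminescence normalised the signal, and concentration-effect curves were fitted to fusion, red and ratio data.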

[1] = measured here: IkBa-CBG green luminescence
[2] = measured here: CBR red luminescence, cell number

## COc1cc(OC)c(C(=O)/C=C/c2ccc(OCc3ccccc3)c(OC)c2)c(OC)c1
[1]
  AC50: 12.6 µM [falling, single point]

## CCOc1ccc(NC(=O)CN(C)C(=O)c2c(-c3ccccc3)noc2C)cc1OCC
[2]
  AC50: 23.1 µM [rising, single point]

## O=C(Nc1cccc(Cl)c1)N1CCN(c2ncccn2)CC1
[2]
  AC50: 29.1 µM [falling, single point]

## CC(C)(C)NS(=O)(=O)c1ccc(CCC(=O)Nc2cc(Cl)ccc2Oc2ccccc2)cc1
[2]
  AC50: 23.1 µM [falling, single point]

## Cc1ccc(NC(=O)c2ccc3c(c2)C(=O)N(CC2CCCO2)C3=O)cc1C (configuration not stated)
[2]
  AC50: 0.794 µM [rising, full curve, poor fit]

## Cc1ccc(OCC(=O)Nc2ccc([N+](=O)[O-])cc2)cc1
[2]
  AC50: 1.64 µM [rising, full curve]

## Cc1ccc(S(=O)(=O)N2CCN(C(=O)CSc3n[nH]c(N)n3)CC2)c(C)c1
[1]
  AC50: 29.1 µM [falling, partial curve, poor fit]

## CCc1ccc(NC(=O)C(C)OC(=O)c2ccc(NS(=O)(=O)c3ccc(C)c([N+](=O)[O-])c3)cc2)cc1 (configuration not stated)
[2]
  AC50: 18.4 µM [falling, single point]

## Cc1cnc(NC(=O)c2ccccn2)s1
[2]
  AC50: 11.2 µM [falling, partial curve, poor fit]

## O=C(OC(C(=O)Nc1cc(Cl)cc(Cl)c1)c1ccccc1)C1=COCCO1 (configuration not stated)
[2]
  AC50: 2.06 µM [falling, partial curve, poor fit]

## Cc1ccc(-c2cc(-c3ccccc3O)nc(N/N=C/c3cccnc3)n2)cc1
[2]
  AC50: 1.26 µM [falling, full curve]

## CCOc1cc(/C=N/O)ccc1OCc1ccc([N+](=O)[O-])cc1
[2]
  AC50: 5.8 µM [rising, partial curve]

## COC(=O)c1ccccc1NC(=O)CSc1[nH]c(=O)cc(C)c1C#N
[2]
  AC50: 15.8 µM [falling, single point]

## CC1CCCC(C)N1C(=O)COC(=O)c1ccc(Br)o1 (configuration not stated)
[2]
  AC50: 6.51 µM [rising, single point]

## COc1cc(OC)cc(C(=O)OCC(=O)Nc2ccc(N3CCCCC3)cc2)c1
[2]
  AC50: 6.51 µM [falling, single point]

## COc1cccc2cc(CC(=O)c3ccccc3)c(=O)oc12
[2]
  AC50: 14.1 µM [falling, partial curve]

## Cc1ccc(-c2cc(C(=O)Nc3ccccc3C)c3ccccc3n2)o1
[2]
  AC50: 0.731 µM [falling, full curve, poor fit]

## O=C(COc1ccc(Oc2ccccc2)cc1)NCc1cn2ccccc2n1
[2]
  AC50: 3.98 µM [rising, full curve, poor fit]
[1]
  AC50: 10 µM [falling, partial curve]

## O=c1/c(=C\c2ccc(O)cc2)sc2n1C(c1ccccc1)C(c1ccccc1)=NN=2 (configuration not stated)
[2]
  AC50: 12.6 µM [falling, partial curve]

## O=c1[nH]c(-c2ccc(O)cc2)nc2scc(-c3cccs3)c12
[2]
  AC50: 12.6 µM [falling, single point]

## CNCC/C=C1/c2ccccc2CSc2ccccc21
[2]
  AC50: 0.116 µM [falling, full curve, poor fit]

## COc1ccc(N2CCN(C(=O)c3cc4c(-c5ccc(Cl)cc5)nn(C)c4s3)CC2)cc1
[2]
  AC50: 3.26 µM [rising, single point]

## COc1ccc(/C(C)=N/Nc2ncc(Cl)cc2Cl)c(O)c1
[2]
  AC50: 9.2 µM [rising, partial curve, poor fit]
[1]
  AC50: 3.26 µM [falling, partial curve, poor fit]

## COc1cc(CN(C)CC(=O)c2[nH]c(C)c(C(C)=O)c2C)ccc1OC(F)F
[2]
  AC50: 29.1 µM [rising, single point]

## CC(=O)c1sc(N/N=C\c2ccccc2O)nc1C
[2]
  AC50: 10 µM [falling, single point]

## CCCCn1nnc(NC(=O)COc2cc(C)ccc2C(C)C)n1
[2]
  AC50: 1.46 µM [falling, partial curve, poor fit]

## O=C(CCN1C(=O)C2C3C=CC(C3)C2C1=O)N1CCN(c2ccccc2Cl)CC1 (configuration not stated)
[2]
  AC50: 6.51 µM [rising, single point]

## O=C(c1ccc2ncsc2c1)N1CCCC(C(F)(F)F)C1 (configuration not stated)
[2]
  AC50: 2.31 µM [rising, full curve, poor fit]

## Nc1c(C(=O)CSc2nnc(-c3ccccc3)o2)c(=O)[nH]c(=O)n1C1CC1
[2]
  AC50: 0.231 µM [rising, full curve, poor fit]

## O=C(NN=Cc1c(F)c(F)c(F)c(F)c1F)c1ccc(NS(=O)(=O)c2cccs2)cc1
[2]
  AC50: 16.4 µM [falling, partial curve, poor fit]

## NS(=O)(=O)c1ccc2nc(NC(=O)Nc3ccccc3F)sc2c1
[2]
  AC50: 3.55 µM [rising, partial curve, poor fit]

## FC(F)(F)C(F)(F)C(F)(F)c1nnc2ccc(N3CCOCC3)nn12
[2]
  AC50: 0.184 µM [falling, full curve, poor fit]

## CCOC(=O)C(=O)NC12CC3CC(CC(C3)C1)C2
[2]
  AC50: 13 µM [rising, partial curve, poor fit]

## CNC(=O)[C@@H]1C[C@H]1[C@@H](NC(=O)OCc1ccccc1)c1ccccc1
[2]
  AC50: 20.6 µM [rising, single point]
[1]
  AC50: 20.6 µM [falling, single point]

## COc1ccc(C(=O)NC(=S)Nc2ccc(S(N)(=O)=O)cc2)cc1
[2]
  AC50: 3.55 µM [rising, partial curve, poor fit]

## CC1CCCCC1NC(=O)NC(=O)COC(=O)c1cncc(Br)c1 (configuration not stated)
[2]
  AC50: 18.4 µM [falling, partial curve, poor fit]

## Oc1ccc(C2=NNC(c3ccc(O)cc3)=NN2)cc1
[2]
  AC50: 12.6 µM [falling, partial curve]

## O=c1[nH]n2c(=O)c3c([nH]c2c1N=Nc1cccc(Cl)c1)CCCC3
[2]
  AC50: 0.651 µM [rising, full curve, poor fit]

## Cc1ccc(-n2ncc(C(=O)Nc3cc(Cl)ccc3Cl)c2C2CCNCC2)cc1
[2]
  AC50: 22.4 µM [falling, single point]

Source: PubChem BioAssay AID493014 (National Center for Advancing Translational Sciences (NCATS), 2011)
